PubChem BioAssay AID256 (DTP/NCI, 2004)
The list shows only some results of the screen, not a fair sample: it gathers tests that were run many times, whatever their T/C, doses with no T/C, and many T/C values between a quarter and a half above the control. Other doses and runs of a compound stand elsewhere. T/C: endpoint of the treated group in % of that of the vehicle group. Some entries give survivors of the animals treated and no T/C: the source files T/C as zero there, which appears to mark a toxic dose or a test without result, not a measured value. Some survivor counts are full or nearly so, which does not show that the dose was tolerated: the source hardly ever lists a survival T/C far under the control, and the zero likely stands for such cases as well. Counts of survivors are from the toxicity check (mostly the fifth day) where no day follows; animals may have died later. Schedule codes are those of the source, read here as Q, the interval in days (D) or hours (H), X, the number of doses. Some entries were tested several times; the results are listed from low to high. For survival time, this PubChem deposit counts one and a half times the control or more as active, and values a quarter to a half above the control carry no call in these data; other NCI protocols may use other cut-offs. Marks such as (2×) count equal records among those shown. Some T/C values carry the count of animals alive at the toxicity check (mostly the fifth day); where none is given, no animal had died by that day.

Tested on: CD2F1 mice, L1210 leukemia ip, survival T/C
Test: NCI In Vivo Anticancer Drug Screen. Data for tumor model L1210 Leukemia (intraperitoneal) in CD2F1 (CDF1) mice
Settings: higher T/C = longer survival
Summary of the method: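 Activity against a transplanted murine tumor was judged by comparing the compound group with a vehicle group. The outcome in the treated animals was divided by that in the controls.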

[1] = T/C endpoint: mean survival time, dose: 100.0 mg/kg/injection, schedule: Q01DX009 (ip), vehicle: water
[2] = T/C endpoint: mean survival time, dose: 200.0 mg/kg/injection, schedule: Q01DX009 (ip), vehicle: water
[3] = T/C endpoint: mean survival time, dose: 50.0 mg/kg/injection, schedule: Q01DX009 (ip), vehicle: water
[4] = T/C endpoint: mean survival time, dose: 200.0 mg/kg/injection, schedule: Q04DX003 (ip), vehicle: saline with Tween-80
[5] = T/C endpoint: mean survival time, dose: 400.0 mg/kg/injection, schedule: Q04DX003 (ip), vehicle: saline with Tween-80
[6] = T/C endpoint: mean survival time, dose: 400.0 mg/kg/injection, schedule: Q01DX009 (ip), vehicle: saline with Tween-80
[7] = T/C endpoint: mean survival time, dose: 100.0 mg/kg/injection, schedule: Q04DX002 (ip), vehicle: saline with Tween-80

## CCOc1ccc2c(c1)c(C)cc(C)[n+]2CC
T/C endpoint: mean survival time, dose: 25.0 mg/kg/injection, schedule: Q04DX003 (ip), vehicle: saline with Tween-80
  survivor count: 3 of 3
T/C endpoint: mean survival time, dose: 50.0 mg/kg/injection, schedule: Q04DX003 (ip), vehicle: saline with Tween-80
  survivor count: 0 of 3
T/C endpoint: mean survival time, dose: 100.0 mg/kg/injection, schedule: Q04DX003 (ip), vehicle: saline with Tween-80
  survivor count: 0 of 3

## CC(=O)Nc1cccc(N)c1
T/C endpoint: mean survival time, dose: 200.0 mg/kg/injection, schedule: Q04DX003 (ip), vehicle: saline
  survivor count: 2 of 6
T/C endpoint: mean survival time, dose: 400.0 mg/kg/injection, schedule: Q04DX003 (ip), vehicle: saline
  survivor count: 0 of 6

## CC(C)(CCC(C)(C)NCCCN)NCCCN
[1]
  survivor count: 6 of 6
[2]
  survivor count: 0 of 6

## CN(C)CCCOc1nc2c(c(=O)n(C)c(=O)n2C)n1C (tested in a mixture with another compound)
T/C endpoint: median survival time, dose: 25.0 mg/kg/injection, schedule: Q01DX009 (ip), vehicle: Klucel (hydroxypropylcellulose) (HPC)
  T/C: 137 and 139 % of control

## CC1(C)C2CCC1(C)C(OCCCN=C(N)CSS(=O)(=O)O)C2 (centres undefined)
T/C endpoint: mean survival time, dose: 37.5 mg/kg/injection, schedule: Q04DX002 (ip), vehicle: saline with Tween-80
  survivor count: 0 of 3
T/C endpoint: mean survival time, dose: 75.0 mg/kg/injection, schedule: Q04DX002 (ip), vehicle: saline with Tween-80
  survivor count: 0 of 3
T/C endpoint: mean survival time, dose: 150.0 mg/kg/injection, schedule: Q04DX002 (ip), vehicle: saline with Tween-80
  survivor count: 0 of 3

## O=C(NNC1CCCCC1)c1ccccc1
T/C endpoint: mean survival time, dose: 200.0 mg/kg/injection, schedule: Q01DX009 (ip), vehicle: acetone
  survivor count: 1 of 6
T/C endpoint: mean survival time, dose: 400.0 mg/kg/injection, schedule: Q01DX009 (ip), vehicle: acetone
  survivor count: 0 of 6

## CCOC(=O)c1ccc(Nc2nnc(-c3c(OC)cc(OC)cc3OC)s2)cc1
T/C endpoint: mean survival time, dose: 100.0 mg/kg/injection, schedule: Q01DX009 (ip), vehicle: saline with Tween-80
  survivor count: 3 of 3

## CCCCCCCCCCCCCCCC(=O)N(CCCN(CC)CC)C(C)CCCN(CC)CC (centres undefined)
T/C endpoint: mean survival time, dose: 12.5 mg/kg/injection, schedule: Q01DX009 (ip), vehicle: water
  survivor count: 2 of 6
T/C endpoint: mean survival time, dose: 25.0 mg/kg/injection, schedule: Q01DX009 (ip), vehicle: water
  survivor count: 0 of 6 and 5 of 6
[3]
  survivor count: 2 of 6
[1]
  survivor count: 0 of 6
[2]
  survivor count: 0 of 6
T/C endpoint: mean survival time, dose: 400.0 mg/kg/injection, schedule: Q01DX009 (ip), vehicle: water
  survivor count: 0 of 6

## NNC(=O)c1cccc(N)c1
[4]
  survivor count: 0 of 6
[5]
  survivor count: 0 of 6

## CC(=O)Nc1ccc([N+](=O)[O-])cc1[N+](=O)[O-]
[5]
  survivor count: 4 of 6

## O=P(O)(O)OCC1OC(n2cnc3c(NCc4ccccc4)ncnc32)C(O)C1O (centres undefined)
T/C endpoint: mean survival time, dose: 200.0 mg/kg/injection, schedule: Q01DX005 (ip), vehicle: other
  survivor count: 0 of 6

## O=c1cc[nH]c(=O)o1
T/C endpoint: mean survival time, dose: 19.0 mg/kg/injection, schedule: Q01DX009 (ip), vehicle: water
  T/C: 128 % of control
T/C endpoint: mean survival time, dose: 28.0 mg/kg/injection, schedule: Q01DX009 (ip), vehicle: water
  T/C: 128 % of control
T/C endpoint: mean survival time, dose: 63.0 mg/kg/injection, schedule: Q01DX009 (ip), vehicle: water
  survivor count: 2 of 6
[5]
  survivor count: 1 of 6
T/C endpoint: median survival time, dose: 19.0 mg/kg/injection, schedule: Q01DX009 (ip), vehicle: water
  T/C: 136 % of control
T/C endpoint: median survival time, dose: 28.0 mg/kg/injection, schedule: Q01DX009 (ip), vehicle: water
  T/C: 141 % of control [5 of 6 alive]
T/C endpoint: median survival time, dose: 42.0 mg/kg/injection, schedule: Q01DX009 (ip), vehicle: water
  T/C: 137 % of control

## O=C(NC1=C(N2CC2)C(=O)C(NC(=O)OCCO)=C(N2CC2)C1=O)OCCO
T/C endpoint: mean survival time, dose: 1.5 mg/kg/injection, schedule: Q01DX009 (ip), vehicle: saline
  T/C: 133 and 134 % of control
T/C endpoint: mean survival time, dose: 3.0 mg/kg/injection, schedule: Q01DX009 (ip), vehicle: saline
  T/C: 145 and 149 % of control
T/C endpoint: mean survival time, dose: 6.0 mg/kg/injection, schedule: Q01DX009 (ip), vehicle: saline
  T/C: 148 % of control (2×)

## Cn1ncc2c(NCc3ccccc3)ncnc21
T/C endpoint: mean survival time, dose: 75.0 mg/kg/injection, schedule: Q01DX009 (ip), vehicle: saline with Tween-80
  T/C: 127 % of control
T/C endpoint: mean survival time, dose: 150.0 mg/kg/injection, schedule: Q01DX009 (ip), vehicle: saline with Tween-80
  survivor count: 4 of 6

## O=C(O)c1cccc([N+](=O)[O-])c1C(=O)c1ccccc1
[6]
  survivor count: 0 of 6

## CN(C)CC1CCCCCC(CN(C)C)C1=O (centres undefined)
T/C endpoint: mean survival time, dose: 300.0 mg/kg/injection, schedule: Q01DX001 (ip), vehicle: other
  survivor count: 2 of 6

## CC12CCC(C1)C(C)(C)C2(O)c1ccccc1 (centres undefined)
[4]
  survivor count: 2 of 6
[5]
  survivor count: 1 of 6

## CCOC(=O)CCC(NC(=O)N(CCCl)CCCl)C(=O)OCC (centres undefined)
T/C endpoint: mean survival time, dose: 50.0 mg/kg/injection, schedule: Q01DX001 (ip), vehicle: saline
  T/C: 126 % of control
T/C endpoint: mean survival time, dose: 400.0 mg/kg/injection, schedule: Q01DX001 (ip), vehicle: carboxymethylcellulose (CMC)
  T/C: 132 % of control
T/C endpoint: mean survival time, dose: 600.0 mg/kg/injection, schedule: Q01DX001 (ip), vehicle: carboxymethylcellulose (CMC)
  T/C: 139 % of control

## CC(Oc1ccc(Cl)cc1)C(/C=N/N=C(N)N)=N/N=C(N)N (centres undefined)
T/C endpoint: mean survival time, dose: 50.0 mg/kg/injection, schedule: Q01DX009 (ip), vehicle: saline
  survivor count: 6 of 6
T/C endpoint: mean survival time, dose: 100.0 mg/kg/injection, schedule: Q01DX009 (ip), vehicle: saline
  survivor count: 0 of 6
T/C endpoint: mean survival time, dose: 200.0 mg/kg/injection, schedule: Q01DX009 (ip), vehicle: saline
  survivor count: 0 of 6
T/C endpoint: mean survival time, dose: 400.0 mg/kg/injection, schedule: Q01DX009 (ip), vehicle: saline
  survivor count: 0 of 6

## OCP(CO)CO.[Cl][Hg][Cl]
T/C endpoint: mean survival time, dose: 50.0 mg/kg/injection, schedule: Q04DX003 (ip), vehicle: saline
  survivor count: 1 of 6

## Cc1ccc(C)c(NC(=O)NCc2ccccc2)c1
[6]
  survivor count: 2 of 6

## N=C(N)c1ccc(/C=C/c2ccc(C(=N)N)cc2O)cc1
[1]
  survivor count: 0 of 6

## O=C1CCC(C(=O)Nc2ccc(Cl)cc2Cl)N1 (centres undefined)
[7]
  survivor count: 3 of 3

## OC(c1ccccc1)(c1ccccc1)c1cc2ccccc2[nH]1
T/C endpoint: mean survival time, dose: 200.0 mg/kg/injection, schedule: Q01DX001 (ip), vehicle: saline with Tween-80
  survivor count: 5 of 6

## N#C[S-].N#C[S-].[Au+3].[Au+3].[CH3-].[CH3-].[CH3-].[CH3-]
[5]
  survivor count: 0 of 6

## CCOC(=O)Nc1cc2c(c(N)n1)N=C(CN(C)c1ccccc1)CN2
T/C endpoint: mean survival time, dose: 25.0 mg/kg/injection, schedule: Q01DX009 (ip), vehicle: Klucel (hydroxypropylcellulose) (HPC)
  survivor count: 6 of 6
T/C endpoint: mean survival time, dose: 50.0 mg/kg/injection, schedule: Q01DX009 (ip), vehicle: Klucel (hydroxypropylcellulose) (HPC)
  survivor count: 6 of 6
T/C endpoint: mean survival time, dose: 100.0 mg/kg/injection, schedule: Q01DX009 (ip), vehicle: Klucel (hydroxypropylcellulose) (HPC)
  survivor count: 6 of 6
T/C endpoint: mean survival time, dose: 200.0 mg/kg/injection, schedule: Q01DX009 (ip), vehicle: Klucel (hydroxypropylcellulose) (HPC)
  survivor count: 0 of 6

## SCCS
[7]
  survivor count: 3 of 3
T/C endpoint: mean survival time, dose: 400.0 mg/kg/injection, schedule: Q04DX002 (ip), vehicle: saline with Tween-80
  survivor count: 3 of 3

## O=C(CCCCCCC(=O)ON1C(=O)CCC1=O)ON1C(=O)CCC1=O
T/C endpoint: median survival time, dose: 400.0 mg/kg/injection, schedule: Q01DX009 (ip), vehicle: saline with Tween-80
  survivor count: 3 of 6

## COc1ccc(NC(=O)C2C3C=CC(C3)C2C(=O)O)cc1 (centres undefined)
[5]
  survivor count: 6 of 6

## O=[N+]([O-])c1c[nH]n2c([N+](=O)[O-])cnc12
[3]
  survivor count: 3 of 6
[1]
  survivor count: 0 of 6
[2]
  survivor count: 0 of 6

## CC#CN(CC)CC
T/C endpoint: mean survival time, dose: 300.0 mg/kg/injection, schedule: Q01DX001 (ip), vehicle: saline
  survivor count: 3 of 6

## COc1cc(N=Nc2ccc(C(=O)O)cc2)ccc1N(CCCl)CCCl
T/C endpoint: mean survival time, dose: 100.0 mg/kg/injection, schedule: Q04DX003 (ip), vehicle: Klucel (hydroxypropylcellulose) (HPC)
  T/C: 132 % of control
T/C endpoint: mean survival time, dose: 200.0 mg/kg/injection, schedule: Q04DX003 (ip), vehicle: Klucel (hydroxypropylcellulose) (HPC)
  survivor count: 5 of 6
T/C endpoint: mean survival time, dose: 400.0 mg/kg/injection, schedule: Q04DX003 (ip), vehicle: Klucel (hydroxypropylcellulose) (HPC)
  survivor count: 4 of 6

## ClC1(Cl)C2CCCCC21 (centres undefined)
[5]
  survivor count: 2 of 6
